One assay addresses T1, MYC-TMEM18-YC (UniProt Q3TUD9).
T1 sequence: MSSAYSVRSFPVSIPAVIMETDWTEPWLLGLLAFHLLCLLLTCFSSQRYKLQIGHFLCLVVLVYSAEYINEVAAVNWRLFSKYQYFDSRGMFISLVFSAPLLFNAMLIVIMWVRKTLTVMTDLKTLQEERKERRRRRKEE
The assay can be described thus: split reporter.

The target of a further assay is T2, YN-FLAG-NDC1 (UniProt Q8VCB1).
T2 sequence: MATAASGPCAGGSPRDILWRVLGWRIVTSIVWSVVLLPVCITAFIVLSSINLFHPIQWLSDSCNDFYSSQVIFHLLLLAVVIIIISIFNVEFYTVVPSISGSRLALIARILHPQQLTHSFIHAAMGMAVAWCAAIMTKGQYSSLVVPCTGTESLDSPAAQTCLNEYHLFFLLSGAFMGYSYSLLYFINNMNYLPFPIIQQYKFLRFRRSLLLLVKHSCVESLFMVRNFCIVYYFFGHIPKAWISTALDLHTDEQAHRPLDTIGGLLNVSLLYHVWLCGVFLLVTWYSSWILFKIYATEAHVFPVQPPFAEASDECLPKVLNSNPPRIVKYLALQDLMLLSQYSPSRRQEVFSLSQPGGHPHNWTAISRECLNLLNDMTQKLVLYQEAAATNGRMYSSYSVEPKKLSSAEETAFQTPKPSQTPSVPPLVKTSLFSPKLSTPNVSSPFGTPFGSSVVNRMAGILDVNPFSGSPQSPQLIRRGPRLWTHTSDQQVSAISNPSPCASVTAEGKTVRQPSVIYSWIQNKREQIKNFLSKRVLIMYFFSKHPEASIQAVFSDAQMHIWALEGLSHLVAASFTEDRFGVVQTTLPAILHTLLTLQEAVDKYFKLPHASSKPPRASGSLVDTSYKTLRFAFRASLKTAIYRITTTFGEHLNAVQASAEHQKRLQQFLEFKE
The assay can be described thus: split reporter.

The target in a further assay is FLAG-tagged TMEM18 (UniProt Q3TUD9). The assay can be described thus: co-IP.

Results are given in words; binding and its absence hold for the method and conditions named. Binding seen in cells or lysates may run through a third protein. Some results given as binding are weak or reduced against the parent protein; the word gives no strength. Where a sequence is shown, tags or fusion partners need not be part of it.

B1: YN-FLAG-NUP35 (protein, UniProt Q8R4R6 1-325)
chain: MAAFAVDPQAPTLGSEPMMLGSPTSPKTGANAQFLPGFLMGDLPAPVTPQPRSISGPSVGVMEMRSPLLAGGSPPQPVVPAHKDKSGAPPVRSIYDDISSPGLGSTPLTSRRQANISLLQSPLVGATTPVPGQSMFSPANIGQPRKTTLSPAQLDPFYTQGDSLTSEDHLDDTWVTVFGFPQASASYILLQFAQYGNILKHVMSNTGNWMHIRYQSKLQARKALSKDGRIFGESIMIGVKPCIDKNVMENSDRGVLSSPSLAFTTPIRTLGTPTQSGSTPRVSTMRPLATAYKASTSDYQVISDRQTPKKDESLVSRAMEYMFGW
B1: the binding entry in the assay with MYC-TMEM18-YC is given as “no binding”.

B2: YN-FLAG-AAAS (protein, UniProt P58742 1-546)
chain: MCSLGLFPPPPPRGQVTLYEHNNELVTGNSYESPPPDFRGQWINLPVLHLTKDPLKAPGRLDHGTRTAFIHHREQVWKRCINVWHDVGLFGVLNEIANSEEEVFEWVKTACSWALALCGRASSLHGSLFPHLSLRSEDLIAEFAQVTNWSSCCLRVFAWHPHTNKFAVALLDDSIRVYNANSTIVPSLKHRLQRNVAALAWKPLSASVLAVACQSCILIWTLDPTSLSTRPSSGCAQVLSHPGHTPVTSLAWAPNGGWLLSASPVDAVILVWDVSTETCVPLPWFRGGGVTNLLWSPDGSKVLATTPSAVFRVWEAQMWTCEAWPTLSGRCQTGCWSPDGNRLLFTVLGEALIYSLSFPERCGTGKGHVGGAKSATIVADLSETTIQTPDGEERLGGEAHSMVWDPSGERLAVLMKGNPQVQDGNPVILLFRTRNSPVFELLPCGIIQGEPGAQAQLITFHPSFNKGALLSVCWSTGRITHIPLYFVNAQFPRFSPVLGRAQEPPAGGGGSIHEVPLFTETSPTSAPWDPLPGQSSAQPHSPHSHL
As to B2, the binding result with MYC-TMEM18-YC was “binds”.

B3: YC-AAAS (protein, UniProt P58742 1-546)
chain: MCSLGLFPPPPPRGQVTLYEHNNELVTGNSYESPPPDFRGQWINLPVLHLTKDPLKAPGRLDHGTRTAFIHHREQVWKRCINVWHDVGLFGVLNEIANSEEEVFEWVKTACSWALALCGRASSLHGSLFPHLSLRSEDLIAEFAQVTNWSSCCLRVFAWHPHTNKFAVALLDDSIRVYNANSTIVPSLKHRLQRNVAALAWKPLSASVLAVACQSCILIWTLDPTSLSTRPSSGCAQVLSHPGHTPVTSLAWAPNGGWLLSASPVDAVILVWDVSTETCVPLPWFRGGGVTNLLWSPDGSKVLATTPSAVFRVWEAQMWTCEAWPTLSGRCQTGCWSPDGNRLLFTVLGEALIYSLSFPERCGTGKGHVGGAKSATIVADLSETTIQTPDGEERLGGEAHSMVWDPSGERLAVLMKGNPQVQDGNPVILLFRTRNSPVFELLPCGIIQGEPGAQAQLITFHPSFNKGALLSVCWSTGRITHIPLYFVNAQFPRFSPVLGRAQEPPAGGGGSIHEVPLFTETSPTSAPWDPLPGQSSAQPHSPHSHL
In the case of B3, the binding result with YN-FLAG-NDC1 is recorded as “binds”.

B4: GFP tagged AAAS (protein, UniProt P58742 1-546)
chain: MCSLGLFPPPPPRGQVTLYEHNNELVTGNSYESPPPDFRGQWINLPVLHLTKDPLKAPGRLDHGTRTAFIHHREQVWKRCINVWHDVGLFGVLNEIANSEEEVFEWVKTACSWALALCGRASSLHGSLFPHLSLRSEDLIAEFAQVTNWSSCCLRVFAWHPHTNKFAVALLDDSIRVYNANSTIVPSLKHRLQRNVAALAWKPLSASVLAVACQSCILIWTLDPTSLSTRPSSGCAQVLSHPGHTPVTSLAWAPNGGWLLSASPVDAVILVWDVSTETCVPLPWFRGGGVTNLLWSPDGSKVLATTPSAVFRVWEAQMWTCEAWPTLSGRCQTGCWSPDGNRLLFTVLGEALIYSLSFPERCGTGKGHVGGAKSATIVADLSETTIQTPDGEERLGGEAHSMVWDPSGERLAVLMKGNPQVQDGNPVILLFRTRNSPVFELLPCGIIQGEPGAQAQLITFHPSFNKGALLSVCWSTGRITHIPLYFVNAQFPRFSPVLGRAQEPPAGGGGSIHEVPLFTETSPTSAPWDPLPGQSSAQPHSPHSHL
Take B4: the binding result in the assay with FLAG-tagged TMEM18 is “binds”.

B5: YN-FLAG-NDC1 (protein, UniProt Q8VCB1 1-673)
chain: MATAASGPCAGGSPRDILWRVLGWRIVTSIVWSVVLLPVCITAFIVLSSINLFHPIQWLSDSCNDFYSSQVIFHLLLLAVVIIIISIFNVEFYTVVPSISGSRLALIARILHPQQLTHSFIHAAMGMAVAWCAAIMTKGQYSSLVVPCTGTESLDSPAAQTCLNEYHLFFLLSGAFMGYSYSLLYFINNMNYLPFPIIQQYKFLRFRRSLLLLVKHSCVESLFMVRNFCIVYYFFGHIPKAWISTALDLHTDEQAHRPLDTIGGLLNVSLLYHVWLCGVFLLVTWYSSWILFKIYATEAHVFPVQPPFAEASDECLPKVLNSNPPRIVKYLALQDLMLLSQYSPSRRQEVFSLSQPGGHPHNWTAISRECLNLLNDMTQKLVLYQEAAATNGRMYSSYSVEPKKLSSAEETAFQTPKPSQTPSVPPLVKTSLFSPKLSTPNVSSPFGTPFGSSVVNRMAGILDVNPFSGSPQSPQLIRRGPRLWTHTSDQQVSAISNPSPCASVTAEGKTVRQPSVIYSWIQNKREQIKNFLSKRVLIMYFFSKHPEASIQAVFSDAQMHIWALEGLSHLVAASFTEDRFGVVQTTLPAILHTLLTLQEAVDKYFKLPHASSKPPRASGSLVDTSYKTLRFAFRASLKTAIYRITTTFGEHLNAVQASAEHQKRLQQFLEFKE
Turning to B5, the binding entry with MYC-TMEM18-YC is on record as “binds”.

B6: GFP tagged NDC1 (protein, UniProt Q8VCB1 1-673)
chain: MATAASGPCAGGSPRDILWRVLGWRIVTSIVWSVVLLPVCITAFIVLSSINLFHPIQWLSDSCNDFYSSQVIFHLLLLAVVIIIISIFNVEFYTVVPSISGSRLALIARILHPQQLTHSFIHAAMGMAVAWCAAIMTKGQYSSLVVPCTGTESLDSPAAQTCLNEYHLFFLLSGAFMGYSYSLLYFINNMNYLPFPIIQQYKFLRFRRSLLLLVKHSCVESLFMVRNFCIVYYFFGHIPKAWISTALDLHTDEQAHRPLDTIGGLLNVSLLYHVWLCGVFLLVTWYSSWILFKIYATEAHVFPVQPPFAEASDECLPKVLNSNPPRIVKYLALQDLMLLSQYSPSRRQEVFSLSQPGGHPHNWTAISRECLNLLNDMTQKLVLYQEAAATNGRMYSSYSVEPKKLSSAEETAFQTPKPSQTPSVPPLVKTSLFSPKLSTPNVSSPFGTPFGSSVVNRMAGILDVNPFSGSPQSPQLIRRGPRLWTHTSDQQVSAISNPSPCASVTAEGKTVRQPSVIYSWIQNKREQIKNFLSKRVLIMYFFSKHPEASIQAVFSDAQMHIWALEGLSHLVAASFTEDRFGVVQTTLPAILHTLLTLQEAVDKYFKLPHASSKPPRASGSLVDTSYKTLRFAFRASLKTAIYRITTTFGEHLNAVQASAEHQKRLQQFLEFKE
For B6, the binding entry with FLAG-tagged TMEM18 was “binds”.

Values taken from article doi:10.1101/122853.
